Measurements as given in the supplement of paper PMC10338343.
± gives the standard deviation. The entries are a selection whose mix differs from that of the whole data set. The uncertainty is large for many entries.

Legend:
[1] = tested on: MILI (PIWIL2) piRISC loaded with piRNA #1 (26 nt); assay: pre-steady-state target cleavage rate (min^-1); higher = faster piRNA-guided slicing of the target; details: guide: piRNA #1 5'p-UGAGGUAGUAGGUUGUAUAGUAUCCA; auxiliary factor: 500 nM mouse GTSF1
Method in brief: (§1)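 A transcribed, DNA-blocked target RNA library (0.1 nM) and 1 nM active affinity-purified piRISC bearing one synthetic guide were incubated in HEPES–potassium acetate buffer at 33 °C for 0–8 or 0–960 min, either with or without 500 nM GTSF1 partner protein. Uncleaved targets were sequenced, normalised to depth and to weakly complementary targets, and pooled over three trials, with k3 capped at 0.0001 min^-1. The pre-steady-state cleavage rate was derived with a burst-and-steady-state fit.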

[2] = tested on: MIWI (PIWIL1) piRISC loaded with piRNA #1 (30 nt); assay: as above; details: guide: piRNA #1 5'p-UGAGGUAGUAGGUUGUAUAGUAUCCAGAGG; auxiliary factor: 500 nM mouse GTSF1
Method in brief: as §1

[3] = tested on: EfPiwi piRISC loaded with piRNA #1 (26 nt); assay: pre-steady-state target cleavage rate (min^-1); guide: piRNA #1 5'p-UGAGGUAGUAGGUUGUAUAGUAUCCA; MIWI and MILI are mouse PIWI proteins and EfPiwi is from a freshwater sponge; tags in brackets are library labels; higher = faster piRNA-guided slicing of the target; details: auxiliary factor: 500 nM Ephydatia muelleri Gtsf1
Method in brief: as §1

Sequence: GGAGACCUAUGAUAUGUUGCUACUUCCUGA
- pre-steady-state target cleavage rate [1]: 0.000328 ± 0.0083
- pre-steady-state target cleavage rate [2]: 0.000237 ± 0.015
- pre-steady-state target cleavage rate [3]: 0.000127 ± 0.013

Sequence: GGAGACCUAACUAUACAACCUUCUACCACA
- pre-steady-state target cleavage rate [1]: 0.00271 ± 0.0056
- pre-steady-state target cleavage rate [2]: 0.194 ± 0.026
- pre-steady-state target cleavage rate [3]: 0.0033 ± 0.0044

Sequence: GGAGACCUAUGUAUACAACCAACUACGUCA
- pre-steady-state target cleavage rate [1]: 0.00241 ± 0.0024
- pre-steady-state target cleavage rate [2]: 0.00183 ± 0.0028
- pre-steady-state target cleavage rate [3]: 0.000947 ± 0.0086

Sequence: GGAGACCUAUGAUUACAAGCUACUACCUGA
- pre-steady-state target cleavage rate [1]: 0.0183 ± 0.0056
- pre-steady-state target cleavage rate [2]: 0.00108 ± 0.0059
- pre-steady-state target cleavage rate [3]: 0.000623 ± 0.0066

Sequence: GGAGACGAUACUAUACAUGCUACUACCUCA
- pre-steady-state target cleavage rate [1]: 0.115 ± 0.01
- pre-steady-state target cleavage rate [2]: 0.755 ± 0.037
- pre-steady-state target cleavage rate [3]: 0.00483 ± 0.0015

Sequence: GGAGACCUAUGAUAACAACCUUGUACCUCA
- pre-steady-state target cleavage rate [1]: 0.00102 ± 0.0063
- pre-steady-state target cleavage rate [2]: 0.000117 ± 0.018
- pre-steady-state target cleavage rate [3]: 0.000127 ± 0.015

Sequence: GGAGACCUAUGAUAUGUUGCUACUACCUUCA
- pre-steady-state target cleavage rate [1]: 0.000662 ± 0.0086
- pre-steady-state target cleavage rate [2]: 0.00162 ± 0.0035
- pre-steady-state target cleavage rate [3]: 0.0011 ± 0.0047

Sequence: GGAGACCUAUGAUAUGUUGUUACUACCUCA
- pre-steady-state target cleavage rate [1]: 0.000288 ± 0.016
- pre-steady-state target cleavage rate [2]: 0.0013 ± 0.0041
- pre-steady-state target cleavage rate [3]: 0.00201 ± 0.0045

Sequence: GGAGACCUAUGAUUACAGCCUACUACCUCA
- pre-steady-state target cleavage rate [1]: 0.000823 ± 0.0084
- pre-steady-state target cleavage rate [2]: 0.000751 ± 0.0069
- pre-steady-state target cleavage rate [3]: 0.00123 ± 0.0055

Sequence: GGAGACCUAUGUAUACAACCAACUAGCUCA
- pre-steady-state target cleavage rate [1]: 0.00118 ± 0.0058
- pre-steady-state target cleavage rate [2]: 0.000358 ± 0.0066
- pre-steady-state target cleavage rate [3]: 0.000171 ± 0.024

Sequence: GGAGACCUAUGAUAACAACUACUACCUCA
- pre-steady-state target cleavage rate [1]: 0.000239 ± 0.012
- pre-steady-state target cleavage rate [2]: 0.000115 ± 0.023
- pre-steady-state target cleavage rate [3]: 0.000688 ± 0.0067

Sequence: GGAGACCUAUGAUUACAACCUUACUACCUCA
- pre-steady-state target cleavage rate [1]: 0.00155 ± 0.004
- pre-steady-state target cleavage rate [2]: 0.000235 ± 0.0076
- pre-steady-state target cleavage rate [3]: 0.000681 ± 0.0081

Sequence: GGAGACCUAUGAUUCACAACCUACUACCUCA
- pre-steady-state target cleavage rate [1]: 0.00321 ± 0.0032
- pre-steady-state target cleavage rate [2]: 0.0011 ± 0.0066
- pre-steady-state target cleavage rate [3]: 0.00142 ± 0.0052

Sequence: GGAGACCUAUGAUUUCAACCAACUACCUCA
- pre-steady-state target cleavage rate [1]: 0.00184 ± 0.0036
- pre-steady-state target cleavage rate [2]: 0.000335 ± 0.0076
- pre-steady-state target cleavage rate [3]: 0.000395 ± 0.0069

Sequence: GGAGACCUAUGAUAUGUACCUAGUACGUCA
- pre-steady-state target cleavage rate [1]: 0.000728 ± 0.0081
- pre-steady-state target cleavage rate [2]: 0.000962 ± 0.0058
- pre-steady-state target cleavage rate [3]: 0.000167 ± 0.012

Sequence: GGAGAGGAUACUAUACAACCUACAUGGAGA [g8:g25:cont:t1A]
- pre-steady-state target cleavage rate [1]: 0.00136 ± 0.0042
- pre-steady-state target cleavage rate [2]: 0.0022 ± 0.0043
- pre-steady-state target cleavage rate [3]: 0.00223 ± 0.0029

Sequence: GGAGACCUAUGAUAUGUUGCUACAAGCUCA
- pre-steady-state target cleavage rate [1]: 0.000552 ± 0.014
- pre-steady-state target cleavage rate [2]: 0.00106 ± 0.0074
- pre-steady-state target cleavage rate [3]: 0.000246 ± 0.0095

Sequence: GGAGACCUAUGUAUUGUACCUACUACCUCA
- pre-steady-state target cleavage rate [1]: 0.000225 ± 0.011
- pre-steady-state target cleavage rate [2]: 0.000151 ± 0.013
- pre-steady-state target cleavage rate [3]: 0.00155 ± 0.0056

Sequence: GGAGACCUAUGAUAACAUCCUAGUACCUCA
- pre-steady-state target cleavage rate [1]: 0.000897 ± 0.0066
- pre-steady-state target cleavage rate [2]: 0.000139 ± 0.015
- pre-steady-state target cleavage rate [3]: 0.000252 ± 0.0094

Sequence: GGAGACCUAUGUAUACAUGGUACUACCUCA
- pre-steady-state target cleavage rate [1]: 0.000997 ± 0.0049
- pre-steady-state target cleavage rate [2]: 0.00121 ± 0.0044
- pre-steady-state target cleavage rate [3]: 0.000488 ± 0.0038

Sequence: GGAGACCUAACUAUACAACGUACUAGCUCA
- pre-steady-state target cleavage rate [1]: 0.0048 ± 0.0062
- pre-steady-state target cleavage rate [2]: 0.024 ± 0.0084
- pre-steady-state target cleavage rate [3]: 0.00367 ± 0.0038

Sequence: GGAGAGGAAACUAUACAUCCUACUACCUCA
- pre-steady-state target cleavage rate [1]: 0.302 ± 0.029
- pre-steady-state target cleavage rate [2]: 1.19 ± 0.074
- pre-steady-state target cleavage rate [3]: 0.00711 ± 0.0026

Sequence: GGAGAGGAUACUAUACUUGGAUGAUGGAGA [g15:g25:cont:t1A]
- pre-steady-state target cleavage rate [1]: 0.000517 ± 0.011
- pre-steady-state target cleavage rate [2]: 0.000582 ± 0.009
- pre-steady-state target cleavage rate [3]: 0.000106 ± 0.036

Sequence: GGAGACCUAUGAUAACCACCUACUACCUCA
- pre-steady-state target cleavage rate [1]: 0.00152 ± 0.0041
- pre-steady-state target cleavage rate [2]: 0.000266 ± 0.0087
- pre-steady-state target cleavage rate [3]: 0.000595 ± 0.015

Sequence: GGAGAGGAUACUAUACAACCUACUAGGAGA [g6:g25:cont:t1A]
- pre-steady-state target cleavage rate [1]: 0.00183 ± 0.0047
- pre-steady-state target cleavage rate [2]: 0.00274 ± 0.0045
- pre-steady-state target cleavage rate [3]: 0.00363 ± 0.0023
